The text below walks through data of article PMC11662670, “Selective recognition of RNA G-quadruplex in vitro and in cells by L-aptamer–D-oligonucleotide conjugate”.

The exact form of at least one protein or probe is not confirmed. For part of these data: Results from cells or extracts need not show a direct contact. For part of these data: Negatives hold for the conditions tested. Tags and fusion partners may be left off the protein sequences shown. For part of these data: At least one verdict rests on a figure or table, not on a statement of the authors.

One data set concerns the target T1, DHX36 (HeLa lysate) (UniProt Q9H2U1).
T1 sequence (looked up, limits assumed): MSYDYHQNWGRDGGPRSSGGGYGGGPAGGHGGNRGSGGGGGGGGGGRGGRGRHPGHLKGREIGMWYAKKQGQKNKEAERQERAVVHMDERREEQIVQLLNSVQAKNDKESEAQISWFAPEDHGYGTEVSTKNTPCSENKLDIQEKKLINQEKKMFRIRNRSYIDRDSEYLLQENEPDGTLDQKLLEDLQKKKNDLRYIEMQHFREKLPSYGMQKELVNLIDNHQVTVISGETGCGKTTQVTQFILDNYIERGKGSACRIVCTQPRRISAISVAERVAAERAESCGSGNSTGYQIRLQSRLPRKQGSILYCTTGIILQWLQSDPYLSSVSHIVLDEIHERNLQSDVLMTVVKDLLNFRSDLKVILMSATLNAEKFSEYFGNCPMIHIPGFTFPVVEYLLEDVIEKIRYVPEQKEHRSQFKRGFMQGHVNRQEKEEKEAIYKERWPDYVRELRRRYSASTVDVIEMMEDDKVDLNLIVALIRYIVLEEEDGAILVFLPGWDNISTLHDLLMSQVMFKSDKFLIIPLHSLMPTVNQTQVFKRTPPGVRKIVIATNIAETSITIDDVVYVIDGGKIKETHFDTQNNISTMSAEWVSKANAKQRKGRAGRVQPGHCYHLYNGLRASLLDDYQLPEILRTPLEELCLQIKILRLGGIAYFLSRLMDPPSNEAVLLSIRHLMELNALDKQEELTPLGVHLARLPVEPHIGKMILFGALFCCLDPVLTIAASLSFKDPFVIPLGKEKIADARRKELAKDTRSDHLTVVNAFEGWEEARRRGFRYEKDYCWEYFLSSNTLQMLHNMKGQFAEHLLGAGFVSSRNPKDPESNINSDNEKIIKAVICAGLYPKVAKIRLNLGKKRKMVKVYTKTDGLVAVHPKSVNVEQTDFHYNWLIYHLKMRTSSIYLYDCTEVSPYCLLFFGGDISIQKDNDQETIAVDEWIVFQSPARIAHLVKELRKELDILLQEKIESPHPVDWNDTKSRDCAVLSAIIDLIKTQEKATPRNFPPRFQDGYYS
Nature of the data set: pull-down, immunoblot. Conditions: Pull-down: same buffer without sucrose, 4 C, protein in an extract, label: 5' biotin.

Another data set deals with T2, DHX36 (UniProt Q9H2U1).
T2 sequence (looked up, limits assumed): T1 sequence (looked up, limits assumed)
The data set can be described thus: competition EMSA. Conditions: 48 nM DHX36, 5 nM RNA, not dissociated by conjugate, L-aptamer or ASO; EMSA: 150 mM KCl, 1 mM MgCl2, 25 mM Tris-HCl pH 7.5, 8% sucrose, 30 min at 37 C; gel at 4 C; commercial protein; label: 5' FAM. On the technique in general: In EMSA bound probe runs differently from free probe, usually more slowly.

As for “GAAGCGAGUGAAGAGAAGUAAUAUACUAAUAUU [Biotin-mut APP rG4 region]”, the binding result with DHX36 (HeLa lysate) is recorded as “no binding”.

As for “GGGAGGGCGGGGAGGGCGCGCGGCGAUCGGACACGA [FAM_TRF2 rG4 region]”, the binding result with DHX36 was “binds”.

Consider “GGGGCGGGUGGGGAGGGGUGCUCUGCUGGUCUU [Biotin-wt APP rG4 region]”, for which the binding result with DHX36 (HeLa lysate) (reduced by 100 nM L-Apt.4-1c-ASO15nt(APP)) is recorded as “binds”.
